Drawing on article PMC8110583, this text covers binding for 1 molecule.

These are yes or no findings as the source states them, for the method shown. Binding seen in cells or lysates may run through a third protein. These calls come from enrichment with a bait or labelling near it, and not all partners need be listed.

The target of this test is TDP-43 (human (endogenous in GPiNs, G401, T47D, A375)) (UniProt Q13148). Description: affinity purification with mass spectrometry; IP of endogenous TDP-43 from GPiN lysate (1-2 mg extract, 1-2 ug antibody, 4 C overnight, Protein G beads) against isotype-matched IgG control, triplicate, label-free LC-MS/MS; interactors: log2 FC > 0 and FDR <= 0.1.

B1: MATR3 (protein, UniProt P43243 1-847)
chain: MSKSFQQSSLSRDSQGHGRDLSAAGIGLLAAATQSLSMPASLGRMNQGTARLASLMNLGMSSSLNQQGAHSALSSASTSSHNLQSIFNIGSRGPLPLSSQHRGDADQASNILASFGLSARDLDELSRYPEDKITPENLPQILLQLKRRRTEEGPTLSYGRDGRSATREPPYRVPRDDWEEKRHFRRDSFDDRGPSLNPVLDYDHGSRSQESGYYDRMDYEDDRLRDGERCRDDSFFGETSHNYHKFDSEYERMGRGPGPLQERSLFEKKRGAPPSSNIEDFHGLLPKGYPHLCSICDLPVHSNKEWSQHINGASHSRRCQLLLEIYPEWNPDNDTGHTMGDPFMLQQSTNPAPGILGPPPPSFHLGGPAVGPRGNLGAGNGNLQGPRHMQKGRVETSRVVHIMDFQRGKNLRYQLLQLVEPFGVISNHLILNKINEAFIEMATTEDAQAAVDYYTTTPALVFGKPVRVHLSQKYKRIKKPEGKPDQKFDQKQELGRVIHLSNLPHSGYSDSAVLKLAEPYGKIKNYILMRMKSQAFIEMETREDAMAMVDHCLKKALWFQGRCVKVDLSEKYKKLVLRIPNRGIDLLKKDKSRKRSYSPDGKESPSDKKSKTDGSQKTESSTEGKEQEEKSGEDGEKDTKDDQTEQEPNMLLESEDELLVDEEEAAALLESGSSVGDETDLANLGDVASDGKKEPSDKAVKKDGSASAAAKKKLKKVDKIEELDQENEAALENGIKNEENTEPGAESSENADDPNKDTSENADGQSDENKDDYTIPDEYRIGPYQPNVPVGIDYVIPKTGFYCKLCSLFYTNEEVAKNTHCSSLPHYQKLKKFLNKLAEERRQKKET
As for B1, the binding entry is “binds”.
